PubChem BioAssay AID1259308, NCATS | 2017

- Aim: 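Genes whose loss raises luciferase production in HEK293 cells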 (primary screen)
- Cell system: human HEK293 embryonic kidney cells stably expressing firefly luciferase (HEK-CMV-Luc2-Hygro)
- Knock-down reagent: single siRNA against human genes, 0.8 pmol siRNA per well
- Duration: 72 h
- Measured: 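Luciferase light (ONE-Glo) measured on one replicate plate set and viability (CellTiter-Glo) on the other, scaled to a negative control siRNA, with robust z-scores and luciferase per cell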
- Direction: total luciferase, z-score: higher = more reporter protein produced
- Call rule: 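An siRNA counts as active if its total luciferase robust z-score exceeds 3; genes with two or more such siRNAs out of three were retested with fresh siRNAs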
- Meaning of the calls: active = raised luciferase; inactive = no rise
This is one part, drawn at random, of about 59,000 reagents. About 1,510 of them (2.6%) were called active. 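Calls use total luciferase alone and ignore viability, so some active siRNAs may act by altering cell number.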 A number with no mark means an inactive call. The numbers tell different reagents against one gene apart. Further read-outs or replicates are left out here.

total luciferase, z-score, by target gene and reagent
SLC4A9: #1 -0.427; #2 -0.781; #3 4.17 (active)
LINC01061: #1 0.00764; #2 -1.07; #3 1.02
PPM1H: #1 -0.165; #2 0.866; #3 -0.308
ALAD: #1 4.18 (active); #2 -0.681; #3 -0.067
SLC16A12: #1 -0.322; #2 3.37 (active); #3 2.65
ENPP3: #1 -0.389; #2 0.872; #3 0.5
ZNF219: #1 0.593; #2 -1.28; #3 1.49
TMEM237: #1 0.955; #2 0.461; #3 1.2
NFYB: #1 1.26; #2 1.61; #3 -1.52
POLR1A: #1 0.273; #2 1.71; #3 -1.59
CPN2: #1 -0.374; #2 0.11; #3 -0.86
CA1: #1 0.206; #2 -2.04; #3 -1.14
SLC5A8: #1 -0.0612; #2 0.655; #3 -2.03

5 entries already listed, ordered by “total luciferase, z-score”, descending.
target gene	reagent no.	total luciferase, z-score
NFYB	2	1.61
NFYB	1	1.26
TMEM237	3	1.2
TMEM237	2	0.461
NFYB	3	-1.52
